{"source": "patent US20160339010A1", "about": "“Treatment of Partly Controlled or Uncontrolled Severe Asthma” (TAKEDA GMBH, priority 2014, published 2016)", "origin": "cited, not measured here", "tested_on": "NTHi/OVA-treated mice", "settings": "1 mg kg-1, intranasal, cited from earlier work", "note": "At least one compound was matched to its structure with a doubt left."}
{"compound": "C[C@@H]1C[C@H]2[C@@H]3CCC4=CC(=O)C=C[C@]4(C)[C@@]3(F)[C@@H](O)C[C@]2(C)[C@@]1(O)C(=O)CO", "note": "[dexamethasone]", "values": [{"measurement": "number of BAL neutrophils", "setting": "NTHi-infected", "value": "does not affect"}, {"measurement": "BAL neutrophils", "setting": "non-infected", "value": "almost abolishes"}]}
